{
  "source": "patent US11696914B1",
  "about": "(priority 2019, dated 2023)",
  "origin": "cited, not measured here",
  "key": {"EBOV [1]": {"system": "EBOV", "conditions": "in vivo, iv; cited from earlier work"}, "EBOV [2]": {"system": "EBOV", "conditions": "human, in vivo; cited from earlier work"}},
  "note": "At least one structure is not confirmed: it was looked up by name or label, or the drawing left a doubt.",
  "data": [
    {"smiles": "CCC(CC)COC(=O)[C@H](C)N[P@](=O)(OC[C@H]1O[C@@](C#N)(c2ccc3c(N)ncnn23)[C@H](O)[C@@H]1O)Oc1ccccc1", "note": "[Remdesivir]", "values": [
      {"measurement": "survival in non-human primates", "setting": "EBOV [1]", "value": 100, "unit": "%"},
      {"measurement": "overall survival rate in EBOV patients", "setting": "EBOV [2]", "value": 47, "unit": "%"}
    ]}
  ]
}
